# From the supplement of paper PMC8975748
# Where a name gives a salt, the structure may show the parent alone. ± gives the standard deviation of the averaged measurements. Some of the results follow. These are raw signals, not scaled to a control.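 A single yeast strain with four plasmids, each encoding a fluorescent protein and an amino-acid or uracil biosynthesis gene, seeds the community. Stochastic plasmid loss yields mixed prototroph and auxotroph subpopulations. Fixed cells were counted via automated confocal fluorescence imaging; DMSO-treated wells were the vehicle reference.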
# Test system: Saccharomyces cerevisiae BY4741 SeMeCo community
# Test: imaged cell count per well (cells); higher = more cells
# Conditions: 10 µM; 24 h; SM minimal medium
# Protocol: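 Same SeMeCo high-content imaging drug screen: Selleck FDA-approved drugs at 10 µM, 24 h in SM medium, 384-well plates, 3 replicates.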
row,Structure (SMILES),imaged cell count per well
1,Oc1ccc(C2CNCCc3c2cc(O)c(O)c3Cl)cc1 (stereo not drawn) [Fenoldopam mesylate],18300 ± 17000
2,CC(C)N1CCN(c2ccc(OCC3COC(Cn4cncn4)(c4ccc(Cl)cc4Cl)O3)cc2)CC1 (stereo not drawn) [Terconazole],29900 ± 2900
3,Nc1ccc(S(=O)(=O)NC(=O)c2ccccc2)cc1 [Sulfabenzamide],21000 ± 9800
4,COCCOC(=O)C1=C(C)NC(C)=C(C(=O)OC(C)C)C1c1cccc([N+](=O)[O-])c1 (stereo not drawn) [Nimodipine],26800 ± 4200
5,CC[C@H]1OC(=O)[C@H](C)[C@@H](O[C@H]2C[C@@](C)(OC)[C@@H](O)[C@H](C)O2)[C@H](C)[C@@H](O[C@@H]2O[C@H](C)C[C@H](N(C)C)[C@H]2O)[C@](C)(O)C[C@@H](C)CN(C)[C@H](C)[C@@H](O)[C@]1(C)O [Azithromycin Dihydrate],22800 ± 7700
6,O=C(Cn1cnnn1)N[C@@H]1C(=O)N2C(C(=O)O)=C(CSc3nncs3)CS[C@H]12 [Ceftezole sodium],21400 ± 9400
7,CO/N=C1\C[C@]2(C[C@@H]3C[C@@H](C/C=C(\C)C[C@@H](C)/C=C/C=C4\CO[C@@H]5[C@H](O)C(C)=C[C@@H](C(=O)O3)[C@]45O)O2)O[C@H](/C(C)=C/C(C)C)[C@H]1C [Moxidectin],23200 ± 6900
8,COc1cccc2c1C(=O)c1c(O)c3c(c(O)c1C2=O)CC(O)(C(=O)CO)CC3OC1CC(N)C(O)C(C)O1 (stereo not drawn) [Doxorubicin (Adriamycin) HCl],11400 ± 4000
9,C[C@@H](c1nc(-c2ccc(C#N)cc2)cs1)[C@](O)(Cn1cncn1)c1cc(F)ccc1F [Isavuconazole],4330 ± 1500
10,CCN(CC)CCOC(=O)c1ccc(N)cc1 [Procaine],28200 ± 4800
11,CN1CCN(CC(=O)N2c3ccccc3C(=O)Nc3cccnc32)CC1 [Pirenzepine dihydrochloride],28300 ± 1700
12,CCS(=O)(=O)CCn1c([N+](=O)[O-])cnc1C [Tinidazole],27300 ± 1700
13,COc1ccc2[nH]c([S+]([O-])Cc3ncc(C)c(OC)c3C)nc2c1 (stereo not drawn) [Omeprazole],26000 ± 2700
14,CCOC(=O)C1=C[C@]2(CC)CCCN3CCc4c(n1c1ccccc41)[C@@H]32 [Vinpocetine],23600 ± 6000
15,COc1ccc(C[C@H](N)C(=O)N[C@H]2[C@@H](O)[C@H](n3cnc4c(N(C)C)ncnc43)O[C@@H]2CO)cc1 [Puromycin 2HCl],19300 ± 8700
16,CN(C)[C@@H]1C(O)=C(C(N)=O)C(=O)[C@@]2(O)C(O)=C3C(=O)c4c(O)ccc(Cl)c4[C@@H](O)[C@H]3C[C@@H]12 [Demeclocycline HCl],23300 ± 4700
17,CCC[C@@H]1C[C@@H](C(=O)N[C@@H]([C@H]2O[C@H](SC)[C@H](O)[C@@H](O)[C@H]2O)[C@H](C)Cl)N(C)C1 [Clindamycin HCl],19400 ± 2100
18,COc1ccccc1N1CCN(CCCNc2cc(=O)n(C)c(=O)n2C)CC1 [Urapidil HCl],20900 ± 8600
19,CC1(C)S[C@@H]2[C@H](NC(=O)[C@H](NC(=O)N3CCNC3=O)c3ccccc3)C(=O)N2[C@H]1C(=O)O [Azlocillin sodium salt],26000 ± 9400

# A second format for some results above:
row	Structure (SMILES)	imaged cell count per well
9	C[C@@H](c1nc(-c2ccc(C#N)cc2)cs1)[C@](O)(Cn1cncn1)c1cc(F)ccc1F [Isavuconazole]	4330 ± 1500
10	CCN(CC)CCOC(=O)c1ccc(N)cc1 [Procaine]	28200 ± 4800
11	CN1CCN(CC(=O)N2c3ccccc3C(=O)Nc3cccnc32)CC1 [Pirenzepine dihydrochloride]	28300 ± 1700
12	CCS(=O)(=O)CCn1c([N+](=O)[O-])cnc1C [Tinidazole]	27300 ± 1700
13	COc1ccc2[nH]c([S+]([O-])Cc3ncc(C)c(OC)c3C)nc2c1 (stereo not drawn) [Omeprazole]	26000 ± 2700
14	CCOC(=O)C1=C[C@]2(CC)CCCN3CCc4c(n1c1ccccc41)[C@@H]32 [Vinpocetine]	23600 ± 6000
15	COc1ccc(C[C@H](N)C(=O)N[C@H]2[C@@H](O)[C@H](n3cnc4c(N(C)C)ncnc43)O[C@@H]2CO)cc1 [Puromycin 2HCl]	19300 ± 8700
16	CN(C)[C@@H]1C(O)=C(C(N)=O)C(=O)[C@@]2(O)C(O)=C3C(=O)c4c(O)ccc(Cl)c4[C@@H](O)[C@H]3C[C@@H]12 [Demeclocycline HCl]	23300 ± 4700
17	CCC[C@@H]1C[C@@H](C(=O)N[C@@H]([C@H]2O[C@H](SC)[C@H](O)[C@@H](O)[C@H]2O)[C@H](C)Cl)N(C)C1 [Clindamycin HCl]	19400 ± 2100
18	COc1ccccc1N1CCN(CCCNc2cc(=O)n(C)c(=O)n2C)CC1 [Urapidil HCl]	20900 ± 8600

# Next records

row,Structure (SMILES),imaged cell count per well
1,CN(C)c1cc(NC(=O)CNC(C)(C)C)c(O)c2c1C[C@H]1C[C@H]3[C@H](N(C)C)C(O)=C(C(N)=O)C(=O)[C@@]3(O)C(O)=C1C2=O [Tigecycline],19400 ± 4200
2,COC(=O)C1=C(C#N)NC(C)=C(C(=O)OC(C)C)C1c1cccc([N+](=O)[O-])c1 (stereo not drawn) [Nilvadipine],14800 ± 2600
3,CC1(C)S[C@@H]2[C@H](NC(=O)[C@H](N)c3ccccc3)C(=O)N2[C@H]1C(=O)O [Ampicillin sodium],27400 ± 4000
4,CO/N=C(\C(=O)N[C@@H]1C(=O)N2C(C(=O)OC(C)OC(C)=O)=C(COC(N)=O)CS[C@H]12)c1ccco1 (stereo partly drawn) [Cefuroxime axetil],20800 ± 3900
5,Oc1c(I)cc(I)c2cccnc12 [Diiodohydroxyquinoline],12300 ± 9600
6,O=c1c(-c2ccc(O)cc2)coc2c([C@@H]3O[C@H](CO)[C@@H](O)[C@H](O)[C@H]3O)c(O)ccc12 [Puerarin],19900 ± 7900
7,CO/N=C(\C(=O)N[C@@H]1C(=O)N2C(C(=O)O)=C(Cn3ccc(=N)n3CCO)CS[C@H]12)c1csc(N)n1 [Cefoselis Sulfate],26900 ± 10000
8,Cc1ccccc1OCC(O)CO (stereo not drawn) [Mephenesin],26500 ± 3400
9,CC1(C)[C@H](C(=O)O)N2C(=O)C[C@H]2S1(=O)=O [Sulbactam sodium],18500 ± 4600
10,CSCC1CN(/N=C/c2ccc([N+](=O)[O-])o2)C(=O)O1 (stereo not drawn) [Nifuratel],24900 ± 3000
11,C[C@H]1[C@H](NC(=O)/C(=N\OC(C)(C)C(=O)O)c2csc(N)n2)C(=O)N1S(=O)(=O)O [Aztreonam],19300 ± 4300
12,CC1(C)S[C@@H]2[C@H](NC(=O)Cc3ccccc3)C(=O)N2[C@H]1C(=O)O [Penicillin G Sodium],17200 ± 11000
13,CC(C(=O)O)c1ccc2c(c1)[nH]c1ccc(Cl)cc12 (stereo not drawn) [Carprofen],14800 ± 3400
14,CCCSc1ccc2[nH]c(NC(=O)OC)nc2c1 [Albendazole],18900 ± 4900
15,COc1ccc2cc([C@H](C)C(=O)O)ccc2c1 [Naproxen Sodium],18700 ± 2900
16,COc1ccc(Cc2cnc(N)nc2N)cc1OC [Diaveridine],24500 ± 5800
17,O=C1CN(/N=C/c2ccc(-c3ccc([N+](=O)[O-])cc3)o2)C(=O)N1 [Dantrolene sodium hemiheptahydrate],17600 ± 8200
18,CCC(=O)O[C@@H]1CC(=O)O[C@H](C)C/C=C/C=C/[C@H](O)[C@H](C)C[C@H](CC=O)[C@H](O[C@@H]2O[C@H](C)[C@@H](O[C@H]3C[C@@](C)(O)[C@@H](OC(=O)CC)[C@H](C)O3)[C@H](N(C)C)[C@H]2O)[C@H]1OC [Midecamycin],27200 ± 2500
19,O=C(CCCN1CC=C(n2c(=O)[nH]c3ccccc32)CC1)c1ccc(F)cc1 [Droperidol],16900 ± 8200
